The source of these data is paper PMC11665464.

The exact form of at least one protein or probe is not confirmed. For some of these results: Weaker means in comparison with the reference protein, sequence or condition of that experiment. At least one verdict was read from the data and is not stated in words by the source.

Series [1] deals with ALYREF-10E R20E,R23E,R27E,R29E,R31E,R217E,R220E,R224E,R226E,R228E (human) (UniProt Q86V81). Kind of series: EMSA. Particulars: 35 mM Tris-HCl pH 7.5, 1 mM DTT, 100 ug/ml BSA, 1 mM MgCl2, 100 mM KCl, 10 min at 30 C, 5 nM nucleic acid, gel at 4 C, recombinant protein, protein details: His6. A general note: A gel shift assay detects complexes by their altered migration in electrophoresis.

For the next series, the target named is ALYREF-ΔNC (human) (UniProt Q86V81). Kind of series: EMSA. The note with it: 35 mM Tris-HCl pH 7.5, 1 mM DTT, 100 ug/ml BSA, 1 mM MgCl2, 100 mM KCl, 10 min at 30 C, 5 nM nucleic acid, gel at 4 C, recombinant protein, protein details: His6.
[2] abbreviates: label: 32P, single-stranded DNA.

For the sequence “CATTGCATATTTAAAACATGTTGGATCCCACGTTGCATGCTGATAGCCTACTAGAGCTGCATGAATTCAAATGACCTCTTATCAAGTGAC / GTCACTTGATAAGAGGTCATTTGAATTCATGGCTTAGAGCTTAATTGCTGAATCTGGTGCTGGGATCCAACATGTTTTAAATATGCAATG / GCACCAGAUUCAGCAAUUAAGCUCUAAGCCGCUGACGGCUCGAUGCUGAUCGUAGCAUCG [3' R-loop (nonmigratable)]”, the binding result in series [1] (label: 32P) is given as “binds more weakly”.

Take “GGTCCCACCACCAGGTGGGCAAAGATGTCC (double strand) [30-mer dsDNA]”: the figures for the binding result (in series [1] (label: 32P on one strand); with ALYREF-ΔNC (human) (label: 32P on one strand)) were “binds more weakly” and “binds”, respectively.

Turning to “GGTCCCACCACCAGGTGGGCAAAGATGTCC [30-mer ssDNA]”, the binding result is “binds more weakly” in series [1] (setting [2]) and “binds” with ALYREF-ΔNC (human) (setting [2]).

For the sequence “GGUCCCACCACCAGGUGGGCAAAGAUGUCC / GGACATCTTTGCCCACCTGGTGGTGGGACC [30-mer RNA-DNA hybrid]”, the binding result in series [1] (label: 32P on RNA strand, DNA:RNA hybrid) is listed as “binds more weakly”.

Take “GGUCCCACCACCAGGUGGGCAAAGAUGUCC / GGACAUCUUUGCCCACCUGGUGGUGGGACC [30-mer dsRNA]”: the binding result in series [1] (label: 32P on one strand) is “binds more weakly”; with ALYREF-ΔNC (human) (label: 32P on one strand), “binds”.

For “GGUCCCACCACCAGGUGGGCAAAGAUGUCC [30-mer ssRNA]”, the binding result in series [1] (label: 32P) is reported as “binds more weakly”; with ALYREF-ΔNC (human) (label: 32P) it was “binds”.
